In article PMC7819943, “Rice protein-binding microarrays: a tool to detect cis-acting elements near promoter regions in rice”:
The list shows a part of the results.

What follows are sequences tested against T1, OsSMF1 (Oryza sativa, UniProt Q6ZLB0 1-436) (assay: protein-binding microarray (RPBM); PBS, 2% BSA, 51.3 ng/ul salmon testes DNA, 50 uM zinc acetate, 200 nM TF, 25 C, 1 h; high values mean tight binding). Settings: protein: recombinant; tags: N-terminal polyhistidine and DsRed monomer fusion (pET32a); chain copies: 2; label: CyDye5-dUTP incorporated in the synthesized complementary strand; 3' TTTTT single-stranded linker to array surface; dsDNA, one strand shown.
T1 sequence: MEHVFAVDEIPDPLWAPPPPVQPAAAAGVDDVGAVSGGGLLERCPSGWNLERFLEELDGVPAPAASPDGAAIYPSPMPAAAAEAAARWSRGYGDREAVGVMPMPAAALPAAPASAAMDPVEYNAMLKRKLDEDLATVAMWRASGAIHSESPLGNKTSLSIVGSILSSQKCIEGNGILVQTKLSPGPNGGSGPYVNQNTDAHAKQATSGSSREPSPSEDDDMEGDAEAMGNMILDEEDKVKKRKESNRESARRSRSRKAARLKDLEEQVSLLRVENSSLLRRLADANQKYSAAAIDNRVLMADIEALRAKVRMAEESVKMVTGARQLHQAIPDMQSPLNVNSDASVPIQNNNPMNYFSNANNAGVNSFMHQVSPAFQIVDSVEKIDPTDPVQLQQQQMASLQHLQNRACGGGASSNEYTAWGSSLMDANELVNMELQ
Summary of the method: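 Transcription factors, each fused N-terminally to a polyhistidine tag and DsRed, were expressed in E. coli BL21-CodonPlus and purified on Ni–NTA. A custom Agilent array was made double-stranded by primer extension with Cy5-dUTP and blocked with 2% BSA. It was incubated with 200 nM protein in PBS, 2% BSA, salmon testes DNA and 50 µM zinc acetate at 25 °C for 1 h, then washed. The binding signal is per-feature fluorescence intensity (arbitrary units) read on an Axon 4000B scanner.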
In the case of “GTGAGTTGGGAACTCTAAGTTCCGAATACACCTGGCTAACCGGAGTCACCTAGTGCAG”, the binding signal is reported as 32800 fluorescence intensity (a.u.).
For “TCACCGTTAACACCACTGTTGGCTGGCCGCACCTACCTCTCGGAGTCACCTAGTGCAG”, the binding signal was 3350 fluorescence intensity (a.u.).
For “TGGCGGCTATCCCCGGAGTCACTGCCACGTGGGGCCCAGCCGGAGTCACCTAGTGCAG”, the binding signal was 33200 fluorescence intensity (a.u.).
For “CGACGGTCGCCACCGTCGCCGTTGCCGTCGTGTCTCAGGCCGGAGTCACCTAGTGCAG”, the binding signal was 3340 fluorescence intensity (a.u.).
For “AAATTGTCATTGTTTGCTGGCTGATTTTATCATCATTTTCCGGAGTCACCTAGTGCAG”, the binding signal was 3360 fluorescence intensity (a.u.).
For “GAGGCGATCGCCGGGGTACGCGTGCTGAATTACCTCAACCCGGAGTCACCTAGTGCAG”, the binding signal was 3440 fluorescence intensity (a.u.).
With “CAAAACAATCAACGCGTCAACATGGTGATGCTCTGTTTGACGGAGTCACCTAGTGCAG” the binding signal was 4080 fluorescence intensity (a.u.).
With “CTCCCCTCTCTTGCTGTCTCTGCTTGCTGCTGCTGCTGCTCGGAGTCACCTAGTGCAG” the binding signal was 22700 fluorescence intensity (a.u.).
“TATACTATCTGTAAATCCTTAGTACACAGCAGGCAGCAGGCGGAGTCACCTAGTGCAG” was tested, and the binding signal was 3280 fluorescence intensity (a.u.).
In the case of “CGGAGAAGGCGCTGACCACACGCGGCGCCAACTCCTCCACCGGAGTCACCTAGTGCAG”, the binding signal is reported as 3360 fluorescence intensity (a.u.).
For “CGTACACCATAGGGACATATATCTCTCTGACGTGTGGGTCCGGAGTCACCTAGTGCAG”, the binding signal was 8470 fluorescence intensity (a.u.).
In the case of “TTTCAAGTAGATCGGCTCCTACTCATCGATGAACTCCCACCGGAGTCACCTAGTGCAG”, the binding signal is reported as 3960 fluorescence intensity (a.u.).
“AGGCTACGAAACTTTCGTAGAAGCCTACATAACGAAAAGGCGGAGTCACCTAGTGCAG” was tested, and the binding signal was 3670 fluorescence intensity (a.u.).
In the case of “CACCTACCCGCGTCCACGCGGCCCACCTGGCGGCGCGAGGCGGAGTCACCTAGTGCAG”, the binding signal is reported as 3180 fluorescence intensity (a.u.).
With “GTGCTTCGGCGGCAGCGCCAGCGTCACGAACTGCTCCTCCCGGAGTCACCTAGTGCAG” the binding signal was 3810 fluorescence intensity (a.u.).
“GCCGTTTCTCCGCGTTCGATTTCGTTGGTTGATGCGTGGGCGGAGTCACCTAGTGCAG” was tested, and the binding signal was 3770 fluorescence intensity (a.u.).
“GGTCATCTGGTGCATACACGTAACACGTCAGGACAACCACCGGAGTCACCTAGTGCAG” was tested, and the binding signal was 8620 fluorescence intensity (a.u.).
For “CGATCCTATGCGTCGTTGGCAGTTTGGCACTAAATCGACCCGGAGTCACCTAGTGCAG”, the binding signal was 4230 fluorescence intensity (a.u.).
For “CGCGACGCCCAGCTCCTGTGATGTCATGTCATGGTCGTCTCGGAGTCACCTAGTGCAG”, the binding signal was 9530 fluorescence intensity (a.u.).
With “TAACTAATAAAATGTGACAGGTCATGGCAATCTTAGATAGCGGAGTCACCTAGTGCAG” the binding signal was 5710 fluorescence intensity (a.u.).
In the case of “ATGTTGTCATGACATGTTACGGTAATATTAGTTGGTGTCCCGGAGTCACCTAGTGCAG”, the binding signal is reported as 4360 fluorescence intensity (a.u.).
With “CCCTCTAACTTTACTTAAAGAGGAGACTCATCCCAACCAACGGAGTCACCTAGTGCAG” the binding signal was 5150 fluorescence intensity (a.u.).
For “CATCGCATCTGCTCCACGTGTGCGCTATCGCGGCTGCGGCCGGAGTCACCTAGTGCAG”, the binding signal was 13400 fluorescence intensity (a.u.).
In the case of “GCGCGCCTGCGCGCCTCTCTCCCGCAGTCCCGCCCGCCCGCGGAGTCACCTAGTGCAG”, the binding signal is reported as 3470 fluorescence intensity (a.u.).
With “ACATGCCGCTAGGAAATATCCCATCCGGTGCCTGTCTAGACGGAGTCACCTAGTGCAG” the binding signal was 3150 fluorescence intensity (a.u.).
In the case of “GTCTGGTGACATCCTACGATAGCCCACGTGTACCAAAACCCGGAGTCACCTAGTGCAG”, the binding signal is reported as 10000 fluorescence intensity (a.u.).
With “TTTATCCCCACATAAAACAAGTAGCTTAACGTGTGTGTATCGGAGTCACCTAGTGCAG” the binding signal was 3360 fluorescence intensity (a.u.).
In the case of “ATCCCCGGTCATCTCGCCTCGTCTCGTCCCGTCCCTGCGCCGGAGTCACCTAGTGCAG”, the binding signal is reported as 3460 fluorescence intensity (a.u.).
For “CGACTTCGCGCTCATGTCCATCGGCGCCGTCGTGTCGCCGCGGAGTCACCTAGTGCAG”, the binding signal was 4000 fluorescence intensity (a.u.).
For “AAAAGTTACACGTCTAATGTTGGATTCTTCCAGAGCACTGCGGAGTCACCTAGTGCAG”, the binding signal was 3930 fluorescence intensity (a.u.).
In the case of “TGCTCTTCCACATCAATGGACCACAAAATTCATTTGTGGACGGAGTCACCTAGTGCAG”, the binding signal is reported as 3220 fluorescence intensity (a.u.).
“CTTTCCAGTTCCTTGTTTCTATCACACTCACTAGGACCAACGGAGTCACCTAGTGCAG” was tested, and the binding signal was 32000 fluorescence intensity (a.u.).
With “GTCAGCGTGAGACCGATATGGCCAGCTAAGTCAGCGTGAGCGGAGTCACCTAGTGCAG” the binding signal was 4000 fluorescence intensity (a.u.).
In the case of “GGGAAGGGCGCCGCGGCGGTGGCCGCGGAGGTGGAGCCGTCGGAGTCACCTAGTGCAG”, the binding signal is reported as 4000 fluorescence intensity (a.u.).
For “AAGTCTGCAGTTGCACTGGGAGTTGACAAAGAAGATGACGCGGAGTCACCTAGTGCAG”, the binding signal was 3550 fluorescence intensity (a.u.).
With “TCCTTCAAGAATCCTATACTTCTTAAATCAGGAACATAATCGGAGTCACCTAGTGCAG” the binding signal was 8910 fluorescence intensity (a.u.).
With “TTTGTACTCCCTCCGTTTCACAATGTGAGTCATTCTAACACGGAGTCACCTAGTGCAG” the binding signal was 5260 fluorescence intensity (a.u.).
“GGGCAGTTTCGTTGATGTGGCGCCTACGTGGCGATGTTGACGGAGTCACCTAGTGCAG” was tested, and the binding signal was 31300 fluorescence intensity (a.u.).
“CCTCCTCACGCCTCACACCGCTCAGTGACCTCGCAAACCACGGAGTCACCTAGTGCAG” was tested, and the binding signal was 13900 fluorescence intensity (a.u.).
In the case of “CTTCAAGGCTTTGTGGTGACACTGATATCTCTCTAGTCTCCGGAGTCACCTAGTGCAG”, the binding signal is reported as 5100 fluorescence intensity (a.u.).
For “GGTGGGGTGAGCGTGTGTGCGGCGCTAGGGTTCGCGAGGGCGGAGTCACCTAGTGCAG”, the binding signal was 3540 fluorescence intensity (a.u.).
With “ATCGTCGCGGGGCCGCCGACGGCGCGCGGTGTGGCCGACGCGGAGTCACCTAGTGCAG” the binding signal was 6480 fluorescence intensity (a.u.).
